Measured values taken from article PMC12667517, “Gigaxonin Potentiates Antiviral Innate Immune Responses by Targeting cGAS and TREX1” (Advanced Science, 2025).
Read-outs that look alike come from different tables or passages of the source. Results are given in words; binding and its absence hold for the method and conditions named. In cells and extracts the contact can be indirect. Some entries that bind do so weakly or less than the wild type. For some of these results: Tags and fused reporters may be left off the sequences shown.

Columns and labels:
[1] = molecular target: T1, endogenous gigaxonin in THP-1 cells (human (endogenous in THP-1)) (UniProt Q9H2C0); experiment: co-IP; endogenous proteins of THP-1 cells infected with HSV-1 (MOI = 1) for the indicated times
T1 sequence: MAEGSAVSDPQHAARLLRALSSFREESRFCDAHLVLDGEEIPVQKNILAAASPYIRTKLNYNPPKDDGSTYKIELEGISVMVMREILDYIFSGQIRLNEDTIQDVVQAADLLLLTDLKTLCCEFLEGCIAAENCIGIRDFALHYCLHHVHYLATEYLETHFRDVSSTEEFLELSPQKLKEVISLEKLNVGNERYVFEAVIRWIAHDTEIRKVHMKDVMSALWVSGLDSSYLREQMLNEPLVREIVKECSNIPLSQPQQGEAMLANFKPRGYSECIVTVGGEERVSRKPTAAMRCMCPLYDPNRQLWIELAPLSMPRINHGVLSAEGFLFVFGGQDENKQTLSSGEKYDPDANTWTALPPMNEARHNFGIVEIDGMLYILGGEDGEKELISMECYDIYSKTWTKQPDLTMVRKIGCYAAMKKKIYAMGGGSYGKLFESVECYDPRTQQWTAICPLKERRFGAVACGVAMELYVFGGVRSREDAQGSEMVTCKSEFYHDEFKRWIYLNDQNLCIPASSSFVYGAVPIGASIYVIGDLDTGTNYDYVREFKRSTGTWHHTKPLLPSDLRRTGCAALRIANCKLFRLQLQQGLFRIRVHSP

[2] = molecular target: T1, endogenous gigaxonin in THP-1 cells (human (endogenous in THP-1)); experiment: as above; remark: listed apart in the source
Myc-gigaxonin (human) [3] = molecular target: T2, Myc-gigaxonin (human) (UniProt Q9H2C0); experiment: co-IP; HEK293T cells transfected with gigaxonin, TREX1 and increasing doses of HA-cGAS, MG-132 for 6 h
T2 sequence: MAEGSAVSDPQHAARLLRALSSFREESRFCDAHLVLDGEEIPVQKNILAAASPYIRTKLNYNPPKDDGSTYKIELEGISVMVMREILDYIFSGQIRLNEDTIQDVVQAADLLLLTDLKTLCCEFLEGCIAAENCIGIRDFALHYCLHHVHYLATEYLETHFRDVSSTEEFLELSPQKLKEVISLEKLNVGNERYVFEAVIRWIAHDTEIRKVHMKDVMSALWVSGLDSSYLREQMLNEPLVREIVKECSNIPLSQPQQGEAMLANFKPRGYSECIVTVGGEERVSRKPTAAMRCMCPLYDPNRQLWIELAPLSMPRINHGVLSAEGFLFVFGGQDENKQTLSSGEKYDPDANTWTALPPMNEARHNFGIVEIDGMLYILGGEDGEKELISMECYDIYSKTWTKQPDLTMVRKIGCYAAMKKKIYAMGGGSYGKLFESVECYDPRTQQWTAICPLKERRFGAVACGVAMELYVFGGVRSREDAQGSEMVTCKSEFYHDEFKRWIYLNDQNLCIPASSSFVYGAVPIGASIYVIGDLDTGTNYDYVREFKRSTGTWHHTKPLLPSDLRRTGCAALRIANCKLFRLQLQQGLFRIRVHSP

Myc-gigaxonin (human) [4] = molecular target: T2, Myc-gigaxonin (human); experiment: co-IP; HEK293T cells transfected with tagged plasmids; NP-40 lysis buffer (150 mM NaCl, 1% NP-40, 20 mM Tris-HCl pH 7.4), Protein G Sepharose 2 h, washes with 0.5 M NaCl; for TREX1 the cells were treated with MG132 for 6 h

Molecule: endogenous cGAS in THP-1 cells (from UniProt Q8N884-1 1-522)
- binding [1]: binds

B1: endogenous TREX1 in THP-1 cells (protein, UniProt Q9NSU2-3 1-314)
chain: MGSQALPPGPMQTLIFFDMEATGLPFSQPKVTELCLLAVHRCALESPPTSQGPPPTVPPPPRVVDKLSLCVAPGKACSPAASEITGLSTAVLAAHGRQCFDDNLANLLLAFLRRQPQPWCLVAHNGDRYDFPLLQAELAMLGLTSALDGAFCVDSITALKALERASSPSEHGPRKSYSLGSIYTRLYGQSPPDSHTAEGDVLALLSICQWRPQALLRWVDAHARPFGTIRPMYGVTASARTKPRPSAVTTTAHLATTRNTSPSLGESRGTKDLPPVKDPGALSREGLLAPLGLLAILTLAVATLYGLSLATPGE
- binding [2]: binds

B2: Flag-TREX1 (protein, UniProt Q9NSU2-3 1-314)
chain: MGSQALPPGPMQTLIFFDMEATGLPFSQPKVTELCLLAVHRCALESPPTSQGPPPTVPPPPRVVDKLSLCVAPGKACSPAASEITGLSTAVLAAHGRQCFDDNLANLLLAFLRRQPQPWCLVAHNGDRYDFPLLQAELAMLGLTSALDGAFCVDSITALKALERASSPSEHGPRKSYSLGSIYTRLYGQSPPDSHTAEGDVLALLSICQWRPQALLRWVDAHARPFGTIRPMYGVTASARTKPRPSAVTTTAHLATTRNTSPSLGESRGTKDLPPVKDPGALSREGLLAPLGLLAILTLAVATLYGLSLATPGE
- binding (Myc-gigaxonin (human) [3]): binds
- binding (Myc-gigaxonin (human) [4]): binds
